# Assay results published in US20060166996A1, “Phthalazine derivatives as phosphodiesterase 4 inhibitors” (Zambon Group S.P.A., priority 2002, published 2006).
# At least one compound was matched to its structure with a doubt left.
# Biological target: T1, PDE 4 enzyme
# T1 construct: % at 10^−7; other: at 10^−7; PDE 4 from U937 cell line; other: PDE 4 isolated from U937 cell line; SPA with 3H-cAMP
# Experiment: PDE 4 enzyme inhibition (SPA)
# Assay type: biochemical
# Settings: for IC50: PDE 4 isolated from U937 cell line, SPA with 3H-cAMP; for % at 10^−7: PDE 4 from U937 cell line
# Experimental: a) PDE 4 Enzyme Purification
# PDE 4 enzyme was isolated from U937 cell line according to the method of Nielson et al. (J. Allergy Clin. Immunol. 1990, vol. 86, pages 801-807) partially modified for the FPLC technique (Fast Protein Liquid Chromatography).
# U-937cell line (Istituto Zooprofilattico Sperimentale, Brescia, Italy) was maintained in RPMI 1640, with 10% foetal calf serum and 2 mM glutamine, at a cell density between 1×10^6 and 8×10^6 cells per ml in an incubator at 37° C. with 5% CO2.
# U937 suspension was homogenised in a buffer containing 10 mM TRIS (tri-(hydroxymethyl)-aminomethane), 5 mM MgCl2, 4 mM EGTA (ethyleneglycol-bis-(β-aminoethylether)-N,N,N′N′-tetra-acetic acid), 5 mM […]-mercaptoethanol, 1 μM leupeptin, 1 μM pepstatin, 1% TRITON x-100, and 100 μM phenylmethyl sulfonyl fluoride (PMSF) at pH 7.8.
# The homogenate was centrifuged and the supernatant was used for the purification of the PDE 4 enzyme; it was seeded on a column connected to a biologic chromatography system (FPLC, BIO RAD).
# PDE 4 enzyme was eluted with a linear gradient, from 0.05 M to 1 M of sodium acetate, and elution fractions were collected for PDE4 activity assay.
# The fractions containing PDE4 activity were collected and, after an overnight dialysis against water to remove sodium acetate, were concentrated to 30% volume with an Amicon filtration system (using YM10 membrane filter).
# Ethylene glycol (30% v/v) was added and the sample was stored at −20° C. in a single aliquot until the use.
# PDE 4 activity assay was performed using Scintillation Proximity Assay (SPA) Amershan kit consisting of tracer ^3H-cAMP, PDE assay buffer (10×solution: 500 mM TRIS/HCl pH 7.5, 83 mM MgCl2 and 17 mM EGTA) and Yttrium SPA PDE beads (containing 18 mM zinc sulphate).
# The radioactivity of the beads was measured using a scintillation counter (Packard model MINAXI β TRI-CARB 4000 SERIES).
# The IC50 values were calculated from concentration-inhibition curves by non linear regression analysis using the program ORIGIN 3.5 (MICROCAL SOFTWARE INC.) and each fitting was the mean±SEM of 3 experiments using different PDE 4 preparations.
SMILES,IC50 [nM],% at 10^−7 [% at 10^−7]
"O=C(O)c1cccc(-c2nnc(Cc3c(Cl)cncc3Cl)c3ccc(OC(F)F)cc23)c1 [Compound 8, 3-[4-(3,5-dichloro-pyridin-4-ylmethyl)-7-difluoromethoxy-phthalazin-1-yl]-benzoic Acid]",23,
"COc1ccc2c(Cc3c(Cl)cncc3Cl)nnc(-c3cc(NS(C)(=O)=O)cc(C(=O)O)c3)c2c1 [Compound 6, 3-[4-(3,5-dichloro-pyridin-4-ylmethyl)-7-methoxy-phthalazin-1-yl]-5-methanesulfonylamino-benzoic Acid]",45,
"COc1ccc2c(Cc3c(Cl)cncc3Cl)nnc(-c3ccc(OC)c(C(=O)O)c3)c2c1 [Compound 4, 5-[4-(3,5-dichloro-pyridin-4-ylmethyl)-7-methoxy-phthalazin-1-yl]-2-methoxy-benzoic Acid]",,16
"COc1cc(C(=O)O)cc(-c2nnc(Cc3c(Cl)cncc3Cl)c3ccc(OC)cc23)c1 [Compound 7, 3-[4-(3,5-dichloro-pyridin-4-ylmethyl)-7-methoxy-phthalazin-1-yl]-5-methoxy-benzoic Acid]",,54
